Results are given in words; binding and its absence hold for the method and conditions named. For part of these data: Binding can be weak; no strength is given.
What was measured:
Assay in all cases: ELISA
[1] = biological target: T1, laminin alpha 5 LG domain recombinant protein (human) (UniProt O15230)
T1 sequence: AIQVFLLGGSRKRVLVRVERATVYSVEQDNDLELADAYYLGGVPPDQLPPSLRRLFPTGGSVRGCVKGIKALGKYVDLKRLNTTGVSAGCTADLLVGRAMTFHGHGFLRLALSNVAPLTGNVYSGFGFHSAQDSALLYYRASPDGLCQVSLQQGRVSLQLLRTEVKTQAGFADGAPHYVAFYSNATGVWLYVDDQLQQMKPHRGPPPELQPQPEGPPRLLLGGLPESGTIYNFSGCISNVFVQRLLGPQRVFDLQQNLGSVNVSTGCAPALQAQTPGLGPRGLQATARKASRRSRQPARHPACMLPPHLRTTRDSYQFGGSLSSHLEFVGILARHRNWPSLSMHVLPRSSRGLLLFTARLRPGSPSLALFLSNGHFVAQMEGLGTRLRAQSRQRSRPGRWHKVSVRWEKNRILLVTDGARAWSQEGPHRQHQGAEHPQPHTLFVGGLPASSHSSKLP

[2] = biological target: T2, laminin-derived peptide α3_(2932-2951) (human) (UniProt Q16787)
T2 sequence (peptide): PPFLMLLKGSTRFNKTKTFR

[3] = biological target: T3, laminin-derived peptide α3_(3031-3043) (human) (UniProt Q16787)
T3 sequence (peptide): KNSFMALYLSKGR

[4] = biological target: T4, laminin-derived peptide α3_(3043-3067) (human) (UniProt Q16787)
T4 sequence (peptide): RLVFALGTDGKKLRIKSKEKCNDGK

[5] = biological target: T5, laminin-derived peptide α5_(3300-3330) (human) (UniProt O15230)
T5 sequence (peptide): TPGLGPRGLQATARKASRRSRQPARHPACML

[6] = biological target: T6, laminin-derived peptide α5_(3312-3325) (human) (UniProt O15230)
T6 sequence (peptide): ARKASRRSRQPARH

[7] = biological target: T7, laminin-derived peptide α5_(3417-3436) (human) (UniProt O15230)
T7 sequence (peptide): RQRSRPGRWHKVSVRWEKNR

[8] = biological target: T8, laminin-derived peptide α5_(3539-3550) (human) (UniProt O15230)
T8 sequence (peptide): TLPDVGLELEVR

[9] = biological target: T9, recombinant laminin α3_(2928-3150) protein (human) (UniProt Q16787)
T9 sequence: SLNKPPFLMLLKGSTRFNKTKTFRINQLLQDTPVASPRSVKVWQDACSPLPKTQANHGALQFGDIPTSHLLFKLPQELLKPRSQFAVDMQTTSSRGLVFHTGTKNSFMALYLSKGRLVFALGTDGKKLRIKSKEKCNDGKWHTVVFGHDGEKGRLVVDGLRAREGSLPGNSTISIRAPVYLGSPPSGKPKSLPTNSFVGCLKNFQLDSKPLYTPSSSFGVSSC

binding [1] | binding [2] | binding [3] | binding [4] | binding [5] | binding [6] | binding [7] | binding [8] | binding [9] | Substance
no binding (tested: 1 μg/mL) | no binding (tested: 1 μg/mL) | no binding (tested: 1 μg/mL) | no binding (tested: 1 μg/mL) | no binding (tested: 1 μg/mL) | no binding (tested: 1 μg/mL) | no binding (tested: 1 μg/mL) | no binding (tested: 1 μg/mL) | no binding (tested: 1 μg/mL) | vascular endothelial growth factor (VEGF)-A121 (human) (ligand)
binds | binds | binds | binds | binds | no binding (tested: 1 μg/mL) | binds | binds | binds | vascular endothelial growth factor (VEGF)-A165 (human) (ligand)

Reference: doi:10.1101/259481 (bioRxiv, 2018)
